For 1 molecule, binding results are on record in publication PMC7673560.

In this assay the target is T1, TOPOISOMERASE Iα with 4HA tag (TOP1α-4HA) (Arabidopsis thaliana) (UniProt P30181).
T1 sequence: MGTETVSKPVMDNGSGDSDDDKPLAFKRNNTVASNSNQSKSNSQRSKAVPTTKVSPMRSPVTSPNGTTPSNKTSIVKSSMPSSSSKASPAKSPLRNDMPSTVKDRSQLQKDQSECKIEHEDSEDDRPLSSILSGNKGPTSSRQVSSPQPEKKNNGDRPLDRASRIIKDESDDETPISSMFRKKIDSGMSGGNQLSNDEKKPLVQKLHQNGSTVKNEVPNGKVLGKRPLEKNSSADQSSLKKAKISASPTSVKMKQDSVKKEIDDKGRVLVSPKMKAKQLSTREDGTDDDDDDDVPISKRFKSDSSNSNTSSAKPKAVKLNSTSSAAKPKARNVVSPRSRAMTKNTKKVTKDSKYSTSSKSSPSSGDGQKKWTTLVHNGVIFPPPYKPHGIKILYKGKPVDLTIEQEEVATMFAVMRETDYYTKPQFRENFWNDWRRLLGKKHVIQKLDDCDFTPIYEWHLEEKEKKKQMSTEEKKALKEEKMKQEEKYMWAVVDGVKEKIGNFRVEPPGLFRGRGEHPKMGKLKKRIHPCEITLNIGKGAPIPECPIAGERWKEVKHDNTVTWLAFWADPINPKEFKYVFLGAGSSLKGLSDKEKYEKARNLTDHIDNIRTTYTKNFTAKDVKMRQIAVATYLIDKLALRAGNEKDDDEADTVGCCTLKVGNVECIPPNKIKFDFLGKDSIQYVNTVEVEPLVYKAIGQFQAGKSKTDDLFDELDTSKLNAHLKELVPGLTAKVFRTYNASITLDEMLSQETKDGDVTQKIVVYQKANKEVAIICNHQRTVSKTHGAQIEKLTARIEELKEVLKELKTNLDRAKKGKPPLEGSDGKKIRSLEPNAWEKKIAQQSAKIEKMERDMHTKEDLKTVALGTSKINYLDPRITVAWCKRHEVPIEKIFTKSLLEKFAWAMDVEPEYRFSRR
The assay can be described thus: affinity purification with mass spectrometry; CoIP coupled with LC-MS/MS of nuclear extracts of young siliques from top1α-10 gTOP1α-4HA; immunoprecipitated proteins eluted and analysed on a TripleTOF 5600.

These are yes or no findings as the source states them, for the method shown. Binding seen in cells or lysates may run through a third protein. These calls come from enrichment with a bait or labelling near it, and not all partners need be listed. Sequences can lack the tags named with a protein.

B1: UP-… SUPPRESSOR 1 (UPF1), endogenous (enzyme, UniProt Q9FJR0 1-1254)
chain: MDSQQSDLFDTASQPDTVADEYTFLEFNTQGDSEFDYQDFGSPTAWPTPSDSISIADVADRGEGGAAADHHSEASSPSSLSAGAGNGAKVGRGGVGGSGGVSSSSQVDALAAGVGNLNFEETGDDDGFDYGKNDFTEHACKYCGISNPACVVRCNVASCRKWFCNSRGNTSGSHIVNHLVRAKHKEVCLHRDSPLGETILECYNCGCRNVFLLGFISAKTDSVVVLLCRDPCLNVNALKDMNWDLSQWCPLIDDRCFLPWLVKVPSEQEQLRARQISAQQINKIEELWKTNPDATLEDLEKPGVDDEPQPVQPKYEDAYQYQNVFAPLIKLEADYDKMMKESQSKENLTVRWDIGLNKKRVAYFVFPKEENELRLVPGDELRLRYSGDAVHPSWQSVGHVIKLTAQEEVALELRANQGVPIDVNHGFSVDFVWKSTSFDRMQGAMKNFAVDETSVSGYIYHQLLGHEVEAQMVRNTLPRRFGVPGLPELNASQVNAVKSVLQKPISLIQGPPGTGKTVTSAAIVYHMAKQGQGQVLVCAPSNVAVDQLAEKISATGLKVVRLCAKSREAVSSPVEYLTLHYQVRHLDTSEKSELHKLQQLKDEQGELSSSDEKKYKNLKRATEREITQSADVICCTCVGAADLRLSNFRFRQVLIDESTQATEPECLIPLVLGVKQVVLVGDHCQLGPVIMCKKAARAGLAQSLFERLVTLGIKPIRLQVQYRMHPALSEFPSNSFYEGTLQNGVTIIERQTTGIDFPWPVPNRPMFFYVQLGQEEISASGTSYLNRTEAANVEKLVTAFLKSGVVPSQIGVITPYEGQRAYIVNYMARNGSLRQQLYKEIEVASVDSFQGREKDYIILSCVRSNEHQGIGFLNDPRRLNVALTRARYGIVILGNPKVLSKQPLWNGLLTHYKEHECLVEGPLNNLKQSMVQFQKPRKIYNDRRLFYGGGAGMIGNDNFGSGNPNADRRGSRGRAGGSYLPSGPPNGARPGLHPAGYPIPRVPLSPFPGGPPSQPYAIPTRGPVGAVPHAPQPGNHGFGAGRGTSVGGHLPHQQATQHNVGTIGPSLNFPLDSPNSQPSPGGPLSQPGYGSQAFRDGFSMGGISQDFLADDIKSQGSHDPYNMADFATQASPGGFAVDYATQGAHGAFPGNFMNQNSQGGYSRFSGINDFMSQEYMAHGGQGLFTQAGFIDSSQDDGQQNPYGVNNPNLQSQGLPNSLYSQPFAHYNTQPLNLSGPQQSQPNQSSQNPKHPYNG
As to B1, the binding result was “binds”.
